From PMC10294715
Construct, isoform or probe ends are uncertain for at least one entry. At least one verdict was read from the data and is not stated in words by the source.

By UniProt entry, the sequences of proteins in these tests, tags left out.
UniProt D3Z6P9, entry or part of it: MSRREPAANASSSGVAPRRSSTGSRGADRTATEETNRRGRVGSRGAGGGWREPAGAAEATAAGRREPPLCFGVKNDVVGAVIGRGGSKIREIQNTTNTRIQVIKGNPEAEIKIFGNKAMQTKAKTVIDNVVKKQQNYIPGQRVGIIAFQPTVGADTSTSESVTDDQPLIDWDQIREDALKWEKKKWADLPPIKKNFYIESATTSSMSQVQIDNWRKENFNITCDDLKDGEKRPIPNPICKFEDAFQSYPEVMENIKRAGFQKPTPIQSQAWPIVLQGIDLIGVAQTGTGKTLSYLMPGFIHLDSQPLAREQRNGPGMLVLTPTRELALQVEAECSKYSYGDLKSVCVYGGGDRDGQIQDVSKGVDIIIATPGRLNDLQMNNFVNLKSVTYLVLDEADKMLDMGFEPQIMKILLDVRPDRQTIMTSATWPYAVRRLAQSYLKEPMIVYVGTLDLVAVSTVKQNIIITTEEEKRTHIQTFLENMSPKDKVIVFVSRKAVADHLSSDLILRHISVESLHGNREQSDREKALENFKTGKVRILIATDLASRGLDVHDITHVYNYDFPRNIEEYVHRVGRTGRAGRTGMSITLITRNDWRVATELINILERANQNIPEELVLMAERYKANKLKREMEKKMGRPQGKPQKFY

molecular target: DDX43 (Mus musculus) (UniProt D3Z6P9); assay: EMSA; settings: EMSA: 10 nM biotin-RNA, 50 mM Tris-HCl pH 7.5, 100 mM KCl, 2.5% glycerol, 0.05% NP-40, 4 mM EDTA, 1 mM DTT, RiboLock 2 U, 37 C 30 min; 8% native TBE PAGE at …; recombinant protein; protein details: His tag (Ni-NTA, pET28a); label: 3' biotin

Sequence | binding result
CGGCGGAGGGGCGGGAGGGU [Elfn2 RG4 only sequence1] | binds
CGGCGGAGGGGCGGGAGGGUCUGCAGCGGAGAGAGG [Elfn2 3' tailed RG4 sequence1] | binds
CGGCGGGAGGCGGGGGUGGC [Elfn2 RG4 only sequence2] | binds
CGGCGGGAGGCGGGGGUGGCAGUGUCUGCGCGCACA [Elfn2 3' tailed RG4 sequence2] | binds
GGGGAGGGUCCGGGUGGGA [RG4 only sequence] | binds
GGGGAGGGUCCGGGUGGGACCGGUGGUGUUUUUU [3' tailed RG4 sequence] | binds
